The list shows a part of the results. Many values rest on one well or one pass, so single values are uncertain.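 The apoptosis fraction was the count of cleaved-PARP antibody-stained nuclei relative to all DNA-stained nuclei, imaged in 1,536-well plates. Screening doses were set so most cells survived, and baseline and induced cleaved-PARP levels vary greatly across cell lines.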
Columns and labels:
Experiment in all cases: cleaved PARP positive nuclei fraction relative to DMSO control; melanoma cells; higher = more apoptosis
Conditions in all cases: library dose: low library concentration; 72 h
501Mel = system: 501Mel
A101D = system: A101D
A2058 = system: A2058
A375 = system: A375
C32 = system: C32
CBRC013 = system: CBRC013 (line from a melanoma biopsy)
CBRC014 = system: CBRC014 (line from a melanoma biopsy)
CBRC016 = system: CBRC016 (line from a melanoma biopsy)
CBRC017 = system: CBRC017 (line from a melanoma biopsy)

SMILES | cleaved PARP positive nuclei fraction (501Mel) [%] | cleaved PARP positive nuclei fraction (A101D) [%] | cleaved PARP positive nuclei fraction (A2058) [%] | cleaved PARP positive nuclei fraction (A375) [%] | cleaved PARP positive nuclei fraction (C32) [%] | cleaved PARP positive nuclei fraction (CBRC013) [%] | cleaved PARP positive nuclei fraction (CBRC014) [%] | cleaved PARP positive nuclei fraction (CBRC016) [%] | cleaved PARP positive nuclei fraction (CBRC017) [%]
CN(C)S(=O)(=O)c1ccc2c(c1)/C(=C/c1cc3c([nH]1)CCCC3)C(=O)N2 + CCc1ccc(CCOc2ccc(CC3SC(=O)NC3=O)cc2)nc1 [pioglitazone] (first compound 0.4 µM, partner dose 2 µM) | 51.6 | 166 | 97.5 | 172 | 50.6 | 49.9 | 113 | 176 | 77.5
COc1cc2c(Oc3ccc4[nH]c(C)cc4c3F)ncnc2cc1OCCCN1CCCC1 [cediranib] + COC(=O)c1sccc1S(=O)(=O)Nc1ccc(Nc2ccccc2)cc1OC [GSK0660] (first compound 0.4 µM, partner dose 1 µM) | 73.3 | 61.3 | 29 | 47.5 | 139 | 136 | 81.2 | 52.9 | 32.5
Oc1cc(-c2nc(-c3ccccc3)[nH]c2-c2ccncc2)ccc1Cl + CC(C)CCN1c2nc(Nc3cc(F)c(O)c(F)c3)ncc2N(C)C(=O)C1C [BID1870] (first compound 0.2 µM, partner dose 0.2 µM) | 83.8 | 132 | 66.7 | 382 | 51.2 | 150 | 115 | 20.8 | 70
O=S(=O)(c1ccccc1)N(CC(F)(F)F)c1ccc(C(O)(C(F)(F)F)C(F)(F)F)cc1 + O=C(O)C(=O)Nc1sc2c(c1C(=O)O)CCNC2 [TCS401] (first compound 1.4 µM, partner dose 1.66667 µM) | 46.6 | 51.9 | 41 | 177 | 136 | 41.9 | 99.2 | 75.7 | 94
O=S(=O)(c1ccccc1)N(CC(F)(F)F)c1ccc(C(O)(C(F)(F)F)C(F)(F)F)cc1 + O=c1cc(-c2cccc3c2Sc2ccccc2S3)oc(N2CCOCC2)c1 [KU55933] (first compound 1.4 µM, partner dose 1 µM) | 140 | 154 | 35.1 | 121 | 73.5 | 26.8 | 80.5 | 67.3 | 78
O=S(=O)(c1ccccc1)N(CC(F)(F)F)c1ccc(C(O)(C(F)(F)F)C(F)(F)F)cc1 + Oc1nc(-c2ccc(C(F)(F)F)cc2)nc2c1CSCC2 [XAV939] (first compound 1.4 µM, partner dose 2 µM) | 21.9 | 54.8 | 33.8 | 123 | 138 | 298 | 94.2 | 17.8 | 135
CCN(CC)CCCCNc1ncc2cc(-c3cc(OC)cc(OC)c3)c(NC(=O)NC(C)(C)C)nc2n1 + CCCCCCCCCCCC1=C(O)C(=O)C=C(O)C1=O [Embelin] (first compound 0.1 µM, partner dose 1.2 µM) | 68.8 | 31.6 | 86.3 | 63.3 | 67.2 | 352 | 79.5 | 36.1 | 85.5
CN(C)S(=O)(=O)c1ccc2c(c1)/C(=C/c1cc3c([nH]1)CCCC3)C(=O)N2 + Cc1cc([N+](=O)[O-])ccc1NS(=O)(=O)c1cc(Cl)ccc1Cl [FH535] (first compound 0.4 µM, partner dose 1 µM) | 79.6 | 105 | 56.8 | 24.4 | 102 | 64.2 | 154 | 2040 | 234
O=S(=O)(c1ccccc1)N(CC(F)(F)F)c1ccc(C(O)(C(F)(F)F)C(F)(F)F)cc1 + CC(C)CCN1c2nc(Nc3cc(F)c(O)c(F)c3)ncc2N(C)C(=O)C1C [BID1870] (first compound 1.4 µM, partner dose 0.2 µM) | 140 | 63.3 | 39.5 | 66.7 | 63 | 57.9 | 103 | 74.3 | 92.5
N#Cc1c(O)c2c(-c3ccc(-c4ccccc4O)cc3)csc2[nH]c1=O + CCCCCCCCCCCC1=C(O)C(=O)C=C(O)C1=O [Embelin] (first compound 2 µM, partner dose 1.2 µM) | 141 | 95.6 | 67.5 | 112 | 109 | 44.6 | 95.3 | 55.7 | 74.7
O=C(O)c1ccc(-c2c[nH]c3ncc(-c4ccccc4)cc23)cc1C1CCCC1 + O=C(Nc1ccccc1)c1cc([N+](=O)[O-])ccc1Cl [GW9662] (first compound 0.16 µM, partner dose 2 µM) | 127 | 67.6 | 117 | 77.3 | 83.9 | 54.7 | 93.6 | 99.4 | 93.4
O=S(=O)(c1ccccc1)N(CC(F)(F)F)c1ccc(C(O)(C(F)(F)F)C(F)(F)F)cc1 + Cc1cc([N+](=O)[O-])ccc1NS(=O)(=O)c1cc(Cl)ccc1Cl [FH535] (first compound 1.4 µM, partner dose 1 µM) | 99.4 | 77.8 | 25.6 | 157 | 146 | 329 | 141 | 929 | 367
CCc1ccc(CCOc2ccc(CC3SC(=O)NC3=O)cc2)nc1 (stereo not drawn) [pioglitazone] + O=S(=O)(c1ccccc1)N(CC(F)(F)F)c1ccc(C(O)(C(F)(F)F)C(F)(F)F)cc1 [T0901317] (first compound 2 µM, partner dose 1.4 µM) | 94.7 | 188 | 61.2 | 119 | 132 | 21.2 | 97.4 | 93.4 | 99.1
COc1ccc(-c2ccc3c(N4CCOCC4)nc(N4C[C@@H](C)O[C@@H](C)C4)nc3n2)cc1CO + O=C(O)C(=O)Nc1sc2c(c1C(=O)O)CCNC2 [TCS401] (first compound 0.02 µM, partner dose 1.66667 µM) | 79.4 | 79.8 | 199 | 151 | 67.6 | 85.1 | 81.8 | 139 | 182
COc1cc2c(Oc3ccc4[nH]c(C)cc4c3F)ncnc2cc1OCCCN1CCCC1 [cediranib] + N#Cc1c(O)c2c(-c3ccc(-c4ccccc4O)cc3)csc2[nH]c1=O [A769662] (first compound 0.4 µM, partner dose 2 µM) | 80 | 119 | 84.5 | 169 | 142 | 203 | 101 | 36.1 | 90.1
CN(NC(=O)CC(=O)NN(C)C(=S)c1ccccc1)C(=S)c1ccccc1 + O=S(=O)(c1ccccc1)N(CC(F)(F)F)c1ccc(C(O)(C(F)(F)F)C(F)(F)F)cc1 [T0901317] (first compound 0.006 µM, partner dose 1.4 µM) | 263 | 157 | 164 | 11000 | 229 | 56.9 | 423 | 93.9 | 122
CN(NC(=O)CC(=O)NN(C)C(=S)c1ccccc1)C(=S)c1ccccc1 + COc1ccc2c(c1)CCC1C2CCC2(C)C(NCCCCCCN3C(=O)C=CC3=O)CCC12 [U73122] (first compound 0.006 µM, partner dose 0.4 µM) | 216 | 128 | 44 | 93.6 | 73.1 | 248 | 127 | 184 | 106
CN(C)S(=O)(=O)c1ccc2c(c1)/C(=C/c1cc3c([nH]1)CCCC3)C(=O)N2 + O=c1cc(-c2cccc3c2Sc2ccccc2S3)oc(N2CCOCC2)c1 [KU55933] (first compound 0.4 µM, partner dose 1 µM) | 211 | 53.3 | 65.4 | 59.9 | 179 | 143 | 114 | 128 | 81.1
NCC(=O)Nc1ccc(-n2nc(C(F)(F)F)cc2-c2ccc3c(ccc4ccccc43)c2)cc1 + COc1ccc(-c2ccc3c(N4CCOCC4)nc(N4C[C@@H](C)O[C@@H](C)C4)nc3n2)cc1CO [KU0063794] (first compound 1 µM, partner dose 0.02 µM) | 528 | 69.8 | 114 | 737 | 94.8 | 72.3 | 75.2 | 84 | 81
Cc1cc([N+](=O)[O-])ccc1NS(=O)(=O)c1cc(Cl)ccc1Cl + c1cc(-c2cnn3cc(-c4ccc(OCCN5CCCCC5)cc4)cnc23)ccn1 [Dorsomorphin] (first compound 1 µM, partner dose 0.4 µM) | 29.5 | 242 | 102 | 840 | 172 | 99.1 | 219 | 1680 | 788
NCC(=O)Nc1ccc(-n2nc(C(F)(F)F)cc2-c2ccc3c(ccc4ccccc43)c2)cc1 + N#Cc1c(O)c2c(-c3ccc(-c4ccccc4O)cc3)csc2[nH]c1=O [A769662] (first compound 1 µM, partner dose 2 µM) | 402 | 113 | 109 | 1300 | 168 | 102 | 98.3 | 94.8 | 96.2
COc1ccc(COc2ccc(Cc3cnc(N)nc3N)cc2OC)cc1 + O=C(O)C(=O)Nc1sc2c(c1C(=O)O)CCNC2 [TCS401] (first compound 1 µM, partner dose 1.66667 µM) | 165 | 41.4 | 41 | 120 | 96.7 | 57.1 | 73.5 | 36.3 | 83

Whole records as entered above. Values in the order: cleaved PARP positive nuclei fraction (501Mel) [%]	cleaved PARP positive nuclei fraction (A101D) [%]	cleaved PARP positive nuclei fraction (A2058) [%]	cleaved PARP positive nuclei fraction (A375) [%]	cleaved PARP positive nuclei fraction (C32) [%]	cleaved PARP positive nuclei fraction (CBRC013) [%]	cleaved PARP positive nuclei fraction (CBRC014) [%]	cleaved PARP positive nuclei fraction (CBRC016) [%]	cleaved PARP positive nuclei fraction (CBRC017) [%]
CN(C)S(=O)(=O)c1ccc2c(c1)/C(=C/c1cc3c([nH]1)CCCC3)C(=O)N2 + CCc1ccc(CCOc2ccc(CC3SC(=O)NC3=O)cc2)nc1 [pioglitazone] (first compound 0.4 µM, partner dose 2 µM) is entered as 51.6	166	97.5	172	50.6	49.9	113	176	77.5
COc1ccc(COc2ccc(Cc3cnc(N)nc3N)cc2OC)cc1 + O=C(O)C(=O)Nc1sc2c(c1C(=O)O)CCNC2 [TCS401] (first compound 1 µM, partner dose 1.66667 µM) is entered as 165	41.4	41	120	96.7	57.1	73.5	36.3	83
